# Experimental data published in the supplement of paper PMC11098740.
# Sequences of proteins named here, by UniProt entry; tags and fusion partners are left off.
# UniProt O14980, whole entry: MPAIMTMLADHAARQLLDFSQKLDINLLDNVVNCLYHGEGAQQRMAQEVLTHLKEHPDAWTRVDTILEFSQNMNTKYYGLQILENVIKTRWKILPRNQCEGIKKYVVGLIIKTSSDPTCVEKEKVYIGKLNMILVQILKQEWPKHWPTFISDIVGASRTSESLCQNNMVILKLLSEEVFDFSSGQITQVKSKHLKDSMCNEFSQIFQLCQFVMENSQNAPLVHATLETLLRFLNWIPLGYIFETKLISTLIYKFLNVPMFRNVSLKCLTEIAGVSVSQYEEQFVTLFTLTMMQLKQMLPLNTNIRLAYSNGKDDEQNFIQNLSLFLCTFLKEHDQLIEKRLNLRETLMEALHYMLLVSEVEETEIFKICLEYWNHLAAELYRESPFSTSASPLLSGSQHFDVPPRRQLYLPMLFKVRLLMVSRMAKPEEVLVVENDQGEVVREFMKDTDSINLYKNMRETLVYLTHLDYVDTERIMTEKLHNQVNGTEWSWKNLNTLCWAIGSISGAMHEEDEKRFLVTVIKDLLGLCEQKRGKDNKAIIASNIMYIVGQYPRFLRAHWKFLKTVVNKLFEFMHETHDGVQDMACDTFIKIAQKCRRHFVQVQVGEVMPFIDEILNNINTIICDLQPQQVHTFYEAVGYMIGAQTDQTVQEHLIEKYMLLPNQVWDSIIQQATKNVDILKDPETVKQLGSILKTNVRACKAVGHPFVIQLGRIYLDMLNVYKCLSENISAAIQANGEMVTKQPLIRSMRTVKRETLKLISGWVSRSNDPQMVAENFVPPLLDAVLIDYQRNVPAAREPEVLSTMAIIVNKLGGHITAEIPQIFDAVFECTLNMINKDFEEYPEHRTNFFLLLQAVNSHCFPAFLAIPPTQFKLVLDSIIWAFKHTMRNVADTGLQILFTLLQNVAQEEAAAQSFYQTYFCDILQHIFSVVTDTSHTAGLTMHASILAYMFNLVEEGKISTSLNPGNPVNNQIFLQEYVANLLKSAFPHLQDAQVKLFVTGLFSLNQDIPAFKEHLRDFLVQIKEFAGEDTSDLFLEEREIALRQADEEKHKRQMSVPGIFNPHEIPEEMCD
# The other results are listed elsewhere or left out. Many values rest on one well or one pass, so single values are uncertain.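 Test system: a mixed pool of 41 HAP1 clones in which 61 cancer-associated proteins carry fluorescent tags inserted into introns, and each clone is identified from its image pattern. Read-outs are compared with DMSO-treated control wells. The BRD4 degrader dBET6 served as the positive control.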
# Experiments:
# [1] = target: XPO1 (intron 15 mScarlet tag, HAP1) (UniProt O14980); assay: XPO1 fluorescence intensity change vs DMSO (log2 fold change); higher = more XPO1 protein; conditions: 6 h
# [2] = target: BRD4 (intron 10 mScarlet tag, HAP1) (UniProt O60885); assay: BRD4 median nuclear fluorescence intensity change vs DMSO (log2 fold change); higher = more BRD4 protein; conditions: 6 h
Structure (SMILES),XPO1 fluorescence intensity change (log2) [1],BRD4 median nuclear fluorescence intensity change (log2) [2]
Nc1c(Cl)cc(NC(=O)C2CC(c3cccc(F)c3)=NO2)cc1Cl (stereo not given) (10 µM),0.0273,0.000651
N#CCn1c(CCl)nc2sc3c(c2c1=O)CCCC3 (10 µM),-0.408,0.0895
COc1ccc(Cl)cc1NS(=O)(=O)c1ccc(OC)c(C)c1C (10 µM),0.0127,0.0024
CCn1c(NC(=O)C(c2ccccc2)c2ccccc2)nc2ccccc21 (10 µM),-0.177,0.0034
CCOc1ccccc1C1CC(=O)Nc2cc3c(cc21)OCO3 (stereo not given) (10 µM),-0.0933,0.0466
Clc1ccc2[nH]c3c(c2c1)CN(c1ncccn1)CC3 (10 µM),-0.151,0.0571
Cc1cc(COC(=O)c2sc(NC(=O)c3ccco3)cc2C)on1 (10 µM),-0.0327,0.0299
O=C(/C=C/c1ccccc1OC(F)(F)F)c1ccc(O)c(CCCl)c1 (10 µM),-0.103,0.0479
O=C(Nc1nc(-c2ccccn2)cs1)c1ccccc1 (10 µM),0.0108,0.14
CCOc1ccccc1NC(=O)c1cccc(NC(=O)c2cccnc2)c1 (10 µM),-0.038,0.0637
Cc1cc(C(=O)N2CCN(c3cc(Cl)ccc3C)CC2)c2ccccc2n1 (1 µM),0.0412,-0.0416
CC(C)(C)c1cnc(CSc2cnc(NC(=O)C3CCNCC3)s2)o1 (20 µM),0.264,-0.0119
CC(C)c1ccccc1OCC(=O)Nc1ccc2[nH]c(=O)c(=O)[nH]c2c1 (10 µM),-0.0282,-0.0472
Clc1ccc2nc(Nc3ccncc3)nc(-c3ccccc3)c2c1 (10 µM),0.0738,0.0284
CCOC(=O)C1=C(C)N(c2ccc3c(c2)OCCO3)C(=S)NC1c1ccccc1 (stereo not given) (10 µM),0.121,0.0534

# Entries of single compounds from above:
# CCOc1ccccc1C1CC(=O)Nc2cc3c(cc21)OCO3 (stereo not given) (10 µM) in the list: XPO1 fluorescence intensity change (log2) [1]: -0.0933; BRD4 median nuclear fluorescence intensity change (log2) [2]: 0.0466
# CCOc1ccccc1NC(=O)c1cccc(NC(=O)c2cccnc2)c1 (10 µM) in the list: XPO1 fluorescence intensity change (log2) [1]: -0.038; BRD4 median nuclear fluorescence intensity change (log2) [2]: 0.0637
